The list shows a part of the results. These are further read-outs of the screen, such as a control signal, another cell line or another target. No call is given for them. Most of these compounds were active or inconclusive in the main read-out, so they are no random draw. The note in brackets gives the kind of curve behind each potency; many fits are weak.
Test: IkB Signaling
Conditions: ABC-DLBCL IkBa-CBG/CBR dual luciferase ratio (green luciferase fused to IkBa over red control in OCI-Ly3 lymphoma cells), 4 h
Procedure, shortened: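 Curves were fitted separately to fusion (green), unfused (red) and ratio luminescence, then classed by r2, magnitude and activity. Cells: OCI-Ly3, 4 h compound plus doxycycline at 37C; 10 uM MG-132 defined full response.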

[1] = measured here: control luc red channel unless noted

With `Cc1ccc(OCc2nc(-c3ccc(C(=O)N4CCN(c5cccc(C(F)(F)F)c5)CC4)cc3)oc2C)cc1` the AC50 [1] was 20 µM [falling, partial curve].

In the case of `CCOC(=O)CCn1cnc2onc(-c3cc(OC)ccc3Cl)c2c1=O`, the AC50 [1] is reported as 31.6 µM [falling, single point].

With `COc1ccc(N(CC(C)C)S(=O)(=O)c2nnc(NC(=O)c3cccs3)s2)cc1` the AC50 [1] was 25.1 µM [falling, single point].

In the case of `C/C=C/c1ccc(Oc2nnnn2-c2ccc(C(=O)O)cc2)c(OC)c1`, the AC50 [1] is reported as 31.6 µM [falling, partial curve].

In the case of `Cc1cccc(-n2ncc(C(=O)N3CCN(Cc4ccccc4)CC3)c2C2CCN(C(=O)OC(C)(C)C)CC2)c1`, the AC50 [1] is reported as 12.6 µM [falling, partial curve].

In the case of `CCn1c(CNC(C)=O)nnc1SCC(=O)c1ccc(Br)cc1`, the AC50 [1] is reported as 39.8 µM [rising, single point] [measured here: IkB-luc green channel].

With `CCOc1ccccc1NC(=O)N1c2ccccc2Sc2ccccc21` the AC50 [1] was 2.51 µM [rising, single point].

For `O=C(Cn1ncn2nc(-c3cccs3)cc2c1=O)NCc1ccc(Cl)cc1`, the AC50 [1] was 1 µM [rising, partial curve].

For `Cc1oc(-c2cccc(Cl)c2)nc1CN1CCCC(C(=O)NCCc2ccc(Cl)cc2)C1` (configuration not stated), the AC50 [1] was 12.6 µM [falling, partial curve].

With `CC(C)CNC(=O)C(=O)Nc1c2c(nn1-c1ccccc1)CS(=O)(=O)C2` the AC50 [1] was 20 µM [rising, single point].

With `O=C(Nc1ccc2c(c1)OCCO2)C1CCN(S(=O)(=O)c2ccc(Br)s2)CC1` the AC50 [1] was 12.6 µM [falling, partial curve].

In the case of `CC(=O)Nc1cc(C(=O)NCc2ccc(C)cc2)ccc1S(=O)(=O)c1ccc(Cl)cc1`, the AC50 [1] is reported as 25.1 µM [falling, single point].

For `CCOC(=O)CN1C(C(=O)c2ccccc2)=C(OC(=O)C(C)(C)C)c2ccccc2S1(=O)=O`, the AC50 [1] was 31.6 µM [falling, single point].

For `Cc1cccc(-n2nnc(C(=O)NC3CCCc4ccccc43)c2N)c1` (configuration not stated), the AC50 [1] was 6.31 µM [falling, partial curve].

With `Cc1ccc(OCC(=O)NCc2ccco2)cc1C` the AC50 [1] was 12.6 µM [falling, partial curve].

For `N#CC1=C(N)SC(N)=C(C#N)C1c1c(Cl)cccc1Cl`, the AC50 [1] was 25.1 µM [rising, partial curve] [measured here: IkB-luc green channel].

With `Cc1cc(Br)ccc1NC(=O)C1CCCN(S(=O)(=O)c2cccc3nonc23)C1` (configuration not stated) the AC50 [1] was 39.8 µM [falling, single point].

With `Cc1ccc(CNC(=O)C2CCN(S(=O)(=O)c3cccc4nonc34)CC2)cc1` the AC50 [1] was 0.398 µM [rising, full curve].

In the case of `COc1ccccc1NC(=O)CSc1nnc(NC(=O)NC2CCCCC2)s1`, the AC50 [1] is reported as 31.6 µM [falling, single point].

In the case of `COc1ccccc1/C=C/c1nc(C#N)c(N2CCN(C)CC2)o1`, the AC50 [1] is reported as 7.94 µM [falling, partial curve].

In the case of `COc1ccc(C(=O)N2CCC(c3nc4ccccc4s3)CC2)cc1Cl`, the AC50 [1] is reported as 20 µM [falling, partial curve].

With `CC(=O)[C@H](CC(C)C)NC(=O)[C@@H](CC(C)C)NC(=O)[C@H](CC(C)C)NC(=O)OCc1ccccc1` the AC50 (measured here: IkB-luc green channel) was 1.58 µM [rising, full curve] and the AC50 (measured here: control luc red channel) was 1 µM [falling, full curve, poor fit].

For `CCc1ccc(NCc2cc3cc4c(cc3n(CC(=O)Nc3ccccc3OC)c2=O)OCCO4)cc1`, the AC50 [1] was 7.94 µM [falling, partial curve].

With `COc1cc(C(=O)Nc2ccc3c(c2)OCCO3)ccc1OC(F)F` the AC50 [1] was 39.8 µM [falling, single point].

For `Cc1ccc(S(=O)(=O)CCC(=O)Nc2ccc(OC(F)(F)F)cc2)cc1`, the AC50 [1] was 20 µM [falling, single point].

For `CCC(Sc1nc2ccncc2[nH]1)C(=O)Nc1cc(Cl)ccc1C` (configuration not stated), the AC50 [1] was 15.8 µM [falling, partial curve].

For `CC1(C)CC(=O)C=C(Nc2cc(-c3ccccc3)[nH]n2)C1`, the AC50 [1] was 6.31 µM [falling, partial curve].

In the case of `CCN(c1ccccc1)S(=O)(=O)c1nnc(NC(=O)c2ccccc2)s1`, the AC50 [1] is reported as 0.0794 µM [rising, full curve].

With `O=C(Nc1ccccc1)N(Cc1c[nH]c2ccccc12)C1CCCCCC1` the AC50 [1] was 3.98 µM [falling, partial curve].

With `O=C1CN(CC(=O)N2CCOCC2)c2ccccc2O1` the AC50 [1] was 1.58 µM [falling, full curve].

In the case of `Cc1cccc(OCc2nc(CC(=O)Nc3ccc(C)cc3C)cs2)c1`, the AC50 [1] is reported as 12.6 µM [falling, single point].

With `Cc1cccc(N2CCN(C(=O)c3cnn(-c4ccccc4Cl)c3C3CCN(C(=O)OC(C)(C)C)CC3)CC2C)c1` (configuration not stated) the AC50 [1] was 39.8 µM [falling, single point].

With `CCc1ccc(C2c3c(oc4ccc(F)cc4c3=O)C(=O)N2CCc2ccc(OC)cc2)cc1` (configuration not stated) the AC50 [1] was 5.01 µM [falling, partial curve].

For `CCOC(=O)c1c(N)n(CCOC(=O)c2cccs2)c2nc3ccccc3nc12`, the AC50 [1] was 12.6 µM [falling, partial curve].

In the case of `Cc1ccc(CNC(=O)Cn2c(=O)ccc3cc(S(=O)(=O)N4CCC(C)CC4)ccc32)cc1`, the AC50 [1] is reported as 0.1 µM [falling, full curve, poor fit].

With `O=C(Nc1ccccc1C(F)(F)F)c1cc(-c2ccc3c(c2)OCCO3)on1` the AC50 [1] was 31.6 µM [falling, single point].

In the case of `CCN(CC)CCNC(=O)C(=O)NCC(c1cccnc1)N1CCN(c2ccc(F)cc2)CC1` (configuration not stated), the AC50 [1] is reported as 20 µM [falling, partial curve].

With `COc1ccc2cc3cc(C(=O)Nc4cc(C)c(Cl)cc4OC)oc3nc2c1` the AC50 [1] was 0.501 µM [falling, full curve].

With `CCc1cccc(CC)c1NC(=O)C1CCC(CNS(=O)(=O)c2cccc3nsnc23)CC1` (configuration not stated) the AC50 [1] was 31.6 µM [falling, partial curve].

In the case of `CC(=O)c1cccc(NS(=O)(=O)c2cc(-c3onc(C)c3C)ccc2C)c1`, the AC50 [1] is reported as 39.8 µM [falling, single point].

With `Cc1sc2c(c1C)c(=O)n(-c1ccc(Cl)cc1)c(=O)n2Cc1cc(=O)n2cc(Br)ccc2n1` the AC50 [1] was 0.2 µM [falling, full curve, poor fit].

For `CCOC(=O)c1c(S(=O)(=O)N2CCCC(C(=O)NCc3ccccc3Cl)C2)c(C)n(C)c1C` (configuration not stated), the AC50 [1] was 0.631 µM [rising, full curve].

For `CCOC(=O)c1ccc(NC(=O)c2cccc(S(=O)(=O)N3CCOCC3)c2)cc1`, the AC50 [1] was 5.01 µM [falling, full curve].

For `CC(C)c1ccc(NC(=O)CN2C(=O)CCc3cc(S(=O)(=O)N4CCOCC4)ccc32)cc1`, the AC50 [1] was 12.6 µM [falling, partial curve].

With `COc1ccc(S(=O)(=O)NCCc2sc(-c3cccc(F)c3)nc2C)cc1` the AC50 [1] was 31.6 µM [falling, partial curve, poor fit].

In the case of `CC(C)c1ccc(NC(=O)c2ccc(F)c(S(=O)(=O)N3CCN(c4ccccc4F)CC3)c2)cc1`, the AC50 [1] is reported as 5.01 µM [falling, partial curve].

With `COc1ccccc1N1CCN(C(=O)CSc2nnc3n2C(C)(C)Cc2ccccc2-3)CC1` the AC50 [1] was 12.6 µM [falling, partial curve].

For `Cc1ccc(C(=O)/C=C/c2cn(CC(O)CN3CCCCCC3)c3ccccc23)cc1` (configuration not stated), the AC50 [1] was 12.6 µM [falling, partial curve].

For `Cc1ccc(NC(=O)CSc2nccn2Cc2ccc3c(c2)OCO3)c(C)c1`, the AC50 [1] was 0.631 µM [rising, full curve, poor fit].

For `CCC1=C(c2ccc(C)cc2)S(=O)(=O)N=C1N1CCC(C(=O)NCc2ccc(C)cc2)CC1`, the AC50 [1] was 25.1 µM [falling, single point].

With `CCCSCCCNC(=O)CN1C(=O)CCn2nc(-c3cn(C)c4ccccc34)cc21` the AC50 [1] was 2 µM [falling, partial curve].

For `COc1cc(NS(=O)(=O)c2ccc(NC(=O)c3ccc(OC)c(Br)c3)cc2)nc(OC)n1`, the AC50 [1] was 31.6 µM [falling, single point].

In the case of `Cn1c(=O)c2c(n3c4ccccc4nc13)NC(=O)CC2c1cccc(Cl)c1` (configuration not stated), the AC50 [1] is reported as 0.251 µM [falling, full curve].

In the case of `Cc1ccc(C)c(N2CCN(C(=O)C3CCCN(S(=O)(=O)c4cccc5nonc45)C3)CC2)c1` (configuration not stated), the AC50 [1] is reported as 10 µM [falling, partial curve].

In the case of `CCc1ccc(O)c(N=Cc2cccc(C)c2O)c1`, the AC50 [1] is reported as 12.6 µM [falling, partial curve].

For `CC(C)(C)NS(=O)(=O)c1ccc2nc(NC(=O)Cc3cccs3)sc2c1`, the AC50 [1] was 15.8 µM [falling, partial curve].

For `C1=Nc2c(Nc3ccccc3)ncnc2Oc2ccccc21`, the AC50 [1] was 39.8 µM [falling, single point].

With `CCOc1ccc2nc(NC(=O)c3ccoc3C)sc2c1` the AC50 [1] was 5.01 µM [falling, partial curve].

For `CC(=O)Nc1cccc(NC(=O)Cc2csc(COc3cccc(C)c3)n2)c1`, the AC50 [1] was 10 µM [falling, partial curve].

With `COc1ccccc1N1CCN(S(=O)(=O)c2ccc(-n3cnnn3)cc2)CC1` the AC50 [1] was 12.6 µM [falling, partial curve].

With `CCOC(=O)N1CCc2c(sc3c2c(=O)n(-c2ccc(CC)cc2)c(=O)n3Cc2cccc(OC)c2)C1` the AC50 [1] was 10 µM [falling, partial curve].
